Some of these results come from one statement about several compounds together.
Test system: bovine oocytes matured for 24 hours
Test: Parthenogenic activation of in vitro matured bovine oocytes (activation, pronuclear formation)
Assay type: cell-based
Conditions: Experiment 3, FIG. 2; time after exposure to ionomycin
Method: Bovine oocytes were obtained at an abattoir and transported to the laboratory in saline (30-34° C., transport time 2-6 hr). Oocytes from small follicles (1-6 mm) were aspirated and matured according to the methods described in Sirard et al., 1988. Briefly, oocytes were diluted out of the follicular fluid with 3 dilutions of TL HEPES modified by removing glucose, adding 0.22 mM pyruvate and 1 mg/ml of BSA (Fraction V, Sigma Chemical CO, St. Louis, Mo.).
The oocytes were placed in 50 μl drops of TCM-199 (Earle's Salts; Gibco, Grand Island, N.Y.) supplemented with 10% heat treated fetal calf serum, 0.22 mM pyruvate, 5 μg/ml FSH-P (Scherring-Plough Animal Health Corp., Kenilworth, N.J.) and 1 μ/ml estradiol. Ten oocytes were incubated in a 50 μl drop under paraffin oil for 24 hours at 39° C. in 5% CO2 in air humidified atmosphere.
The cumulus was removed from matured oocytes by vortexing vigorously in 200 μl or TL-HEPES for 3 min. The denuded oocytes were diluted in 3 changes of TL-HEPES to separate the oocytes from the cumulus cells. […]
Activation was evaluated at times indicated in each experiment. […]
Experiment 1 determined the effect of sequential exposure of oocytes to ionomycin and DMAP. […] Activation was determined after 5 hours of culture. […]

SMILES: C[C@H](CCC(=O)O)C[C@H](C)C[C@H](C)C(=O)/C=C(\O)[C@H](C)C[C@H](C)C/C=C/[C@@H](C)[C@@H](O)[C@@H](C)[C@@H](O)C[C@@H]1CC[C@@](C)([C@H]2CC[C@@](C)([C@@H](C)O)O2)O1 [Ionomycin, ionomycin]
- Time by which there was evidence of polar body expulsion: ≤ 2 h
